Experimental data taken from the supplement of paper PMC10849652.
Some of the results follow.

Protein sequences, listed by entry. Tags and fused reporters are not part of them. Lines headed by an entry give the natural chain unless they say otherwise; changes in a name come on top.
UniProt P36957: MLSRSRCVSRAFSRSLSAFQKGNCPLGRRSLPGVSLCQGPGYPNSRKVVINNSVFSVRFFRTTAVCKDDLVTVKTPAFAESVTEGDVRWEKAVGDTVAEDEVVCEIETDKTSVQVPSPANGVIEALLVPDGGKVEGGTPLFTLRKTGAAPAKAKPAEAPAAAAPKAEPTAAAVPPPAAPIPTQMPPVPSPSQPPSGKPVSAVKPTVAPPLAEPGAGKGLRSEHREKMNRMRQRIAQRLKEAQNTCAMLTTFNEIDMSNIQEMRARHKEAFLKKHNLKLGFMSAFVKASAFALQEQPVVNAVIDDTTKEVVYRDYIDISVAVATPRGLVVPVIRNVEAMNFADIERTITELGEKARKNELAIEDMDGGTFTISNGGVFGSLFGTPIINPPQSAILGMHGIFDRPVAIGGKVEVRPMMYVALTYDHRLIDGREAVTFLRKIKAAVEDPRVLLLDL
UniProt Q8IXB1: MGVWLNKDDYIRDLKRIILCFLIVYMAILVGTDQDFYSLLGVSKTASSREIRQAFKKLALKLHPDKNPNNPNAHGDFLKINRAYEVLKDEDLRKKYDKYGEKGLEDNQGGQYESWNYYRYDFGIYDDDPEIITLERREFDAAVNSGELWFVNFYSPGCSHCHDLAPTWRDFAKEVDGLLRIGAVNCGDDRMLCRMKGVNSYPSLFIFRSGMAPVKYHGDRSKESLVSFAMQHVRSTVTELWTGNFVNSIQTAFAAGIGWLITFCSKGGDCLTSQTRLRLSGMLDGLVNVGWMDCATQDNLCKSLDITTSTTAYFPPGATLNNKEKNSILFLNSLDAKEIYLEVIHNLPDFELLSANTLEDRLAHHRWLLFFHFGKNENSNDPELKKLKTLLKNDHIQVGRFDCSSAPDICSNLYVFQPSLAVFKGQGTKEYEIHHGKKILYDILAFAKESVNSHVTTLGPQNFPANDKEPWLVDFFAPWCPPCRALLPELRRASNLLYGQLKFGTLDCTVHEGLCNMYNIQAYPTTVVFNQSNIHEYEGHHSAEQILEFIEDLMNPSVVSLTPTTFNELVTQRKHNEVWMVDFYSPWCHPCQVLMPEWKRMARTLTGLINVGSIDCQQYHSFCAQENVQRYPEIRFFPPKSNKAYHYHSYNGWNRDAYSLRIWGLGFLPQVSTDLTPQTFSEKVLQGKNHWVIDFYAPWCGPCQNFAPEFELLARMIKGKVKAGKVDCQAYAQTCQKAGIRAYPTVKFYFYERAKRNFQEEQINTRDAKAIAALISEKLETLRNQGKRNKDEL
UniProt Q15398: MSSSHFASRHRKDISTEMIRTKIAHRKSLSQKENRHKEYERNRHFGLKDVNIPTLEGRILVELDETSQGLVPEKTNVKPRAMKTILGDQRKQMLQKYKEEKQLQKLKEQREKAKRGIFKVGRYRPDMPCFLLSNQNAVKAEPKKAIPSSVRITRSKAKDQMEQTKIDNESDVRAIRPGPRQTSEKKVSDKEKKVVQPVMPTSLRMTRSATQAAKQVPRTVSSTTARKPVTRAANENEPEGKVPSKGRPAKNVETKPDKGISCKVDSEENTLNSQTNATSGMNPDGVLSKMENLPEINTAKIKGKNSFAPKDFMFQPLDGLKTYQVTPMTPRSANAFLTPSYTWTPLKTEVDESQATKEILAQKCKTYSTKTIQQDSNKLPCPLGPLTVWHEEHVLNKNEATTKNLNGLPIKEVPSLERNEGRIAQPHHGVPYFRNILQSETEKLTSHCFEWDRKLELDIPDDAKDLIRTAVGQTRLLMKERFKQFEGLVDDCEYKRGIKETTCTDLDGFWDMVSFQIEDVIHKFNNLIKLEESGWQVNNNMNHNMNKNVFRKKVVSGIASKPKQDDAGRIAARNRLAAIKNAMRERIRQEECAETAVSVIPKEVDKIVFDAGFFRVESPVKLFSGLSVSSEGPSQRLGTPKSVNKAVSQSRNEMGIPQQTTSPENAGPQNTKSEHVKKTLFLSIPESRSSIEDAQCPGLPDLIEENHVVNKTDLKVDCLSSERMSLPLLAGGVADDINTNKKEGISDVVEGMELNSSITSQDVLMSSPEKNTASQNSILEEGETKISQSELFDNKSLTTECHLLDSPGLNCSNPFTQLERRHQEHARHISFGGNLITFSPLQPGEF
UniProt Q8IY37: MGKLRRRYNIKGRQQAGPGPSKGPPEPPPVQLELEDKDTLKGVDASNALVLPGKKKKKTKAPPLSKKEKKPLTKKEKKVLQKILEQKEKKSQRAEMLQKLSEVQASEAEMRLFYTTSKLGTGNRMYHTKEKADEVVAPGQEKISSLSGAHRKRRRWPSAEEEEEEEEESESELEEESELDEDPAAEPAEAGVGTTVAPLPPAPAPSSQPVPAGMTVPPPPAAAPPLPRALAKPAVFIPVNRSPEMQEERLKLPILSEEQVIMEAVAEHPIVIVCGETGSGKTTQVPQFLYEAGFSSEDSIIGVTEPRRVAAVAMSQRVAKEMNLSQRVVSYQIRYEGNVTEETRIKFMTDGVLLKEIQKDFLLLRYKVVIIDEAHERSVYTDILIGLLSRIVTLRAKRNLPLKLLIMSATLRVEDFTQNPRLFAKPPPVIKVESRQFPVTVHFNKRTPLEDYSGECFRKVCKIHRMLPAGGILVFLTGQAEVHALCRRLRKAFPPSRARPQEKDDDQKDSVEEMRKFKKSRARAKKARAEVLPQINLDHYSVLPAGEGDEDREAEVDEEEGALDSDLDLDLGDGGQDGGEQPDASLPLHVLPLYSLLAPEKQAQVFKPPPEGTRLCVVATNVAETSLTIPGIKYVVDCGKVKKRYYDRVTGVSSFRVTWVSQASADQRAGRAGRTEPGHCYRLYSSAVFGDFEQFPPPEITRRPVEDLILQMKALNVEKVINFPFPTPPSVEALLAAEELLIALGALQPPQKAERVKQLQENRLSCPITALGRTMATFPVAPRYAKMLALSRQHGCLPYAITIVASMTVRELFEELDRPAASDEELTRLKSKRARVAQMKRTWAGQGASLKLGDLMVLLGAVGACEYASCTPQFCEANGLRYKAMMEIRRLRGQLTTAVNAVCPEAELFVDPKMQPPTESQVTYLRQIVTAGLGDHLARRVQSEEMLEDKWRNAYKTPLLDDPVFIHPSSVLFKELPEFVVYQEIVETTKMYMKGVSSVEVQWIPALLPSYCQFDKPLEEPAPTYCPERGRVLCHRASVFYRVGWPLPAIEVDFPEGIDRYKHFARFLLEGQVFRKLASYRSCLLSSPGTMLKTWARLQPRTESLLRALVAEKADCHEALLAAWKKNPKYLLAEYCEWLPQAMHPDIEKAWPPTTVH
UniProt P09622, whole entry, looked up: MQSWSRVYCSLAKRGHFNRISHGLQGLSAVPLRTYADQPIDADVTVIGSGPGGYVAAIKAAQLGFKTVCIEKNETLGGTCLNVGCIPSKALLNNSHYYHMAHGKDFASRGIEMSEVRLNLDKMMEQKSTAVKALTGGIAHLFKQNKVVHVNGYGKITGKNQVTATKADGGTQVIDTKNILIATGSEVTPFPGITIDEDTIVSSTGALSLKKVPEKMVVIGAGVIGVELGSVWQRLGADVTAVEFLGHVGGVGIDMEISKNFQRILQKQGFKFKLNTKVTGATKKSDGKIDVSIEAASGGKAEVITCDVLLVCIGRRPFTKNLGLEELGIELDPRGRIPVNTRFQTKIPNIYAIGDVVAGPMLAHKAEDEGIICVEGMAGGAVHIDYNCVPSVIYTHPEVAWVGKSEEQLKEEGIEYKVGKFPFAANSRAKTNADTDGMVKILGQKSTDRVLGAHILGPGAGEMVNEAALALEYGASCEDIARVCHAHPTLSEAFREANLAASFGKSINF
UniProt Q05193: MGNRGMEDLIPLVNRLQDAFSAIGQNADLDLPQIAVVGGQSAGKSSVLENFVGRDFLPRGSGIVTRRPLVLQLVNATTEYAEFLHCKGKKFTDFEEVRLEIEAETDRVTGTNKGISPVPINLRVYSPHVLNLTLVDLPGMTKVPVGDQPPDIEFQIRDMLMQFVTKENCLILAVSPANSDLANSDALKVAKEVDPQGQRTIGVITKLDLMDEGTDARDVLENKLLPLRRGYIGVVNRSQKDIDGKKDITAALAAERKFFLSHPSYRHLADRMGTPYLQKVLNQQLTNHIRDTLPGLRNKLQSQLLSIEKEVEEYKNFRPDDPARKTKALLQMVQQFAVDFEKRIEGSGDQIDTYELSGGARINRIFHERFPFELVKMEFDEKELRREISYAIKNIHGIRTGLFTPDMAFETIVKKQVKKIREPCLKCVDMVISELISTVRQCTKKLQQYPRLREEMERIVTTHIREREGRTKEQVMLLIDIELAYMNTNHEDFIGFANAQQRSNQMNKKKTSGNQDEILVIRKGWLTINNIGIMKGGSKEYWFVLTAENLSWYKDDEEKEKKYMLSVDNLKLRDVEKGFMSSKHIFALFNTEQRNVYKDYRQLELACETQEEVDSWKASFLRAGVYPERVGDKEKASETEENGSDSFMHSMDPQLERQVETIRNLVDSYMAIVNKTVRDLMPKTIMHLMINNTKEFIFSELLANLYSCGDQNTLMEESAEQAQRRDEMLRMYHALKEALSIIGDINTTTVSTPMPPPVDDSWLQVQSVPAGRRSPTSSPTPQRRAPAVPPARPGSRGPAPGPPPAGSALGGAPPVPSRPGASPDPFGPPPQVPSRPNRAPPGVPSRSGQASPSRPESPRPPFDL
UniProt P98153: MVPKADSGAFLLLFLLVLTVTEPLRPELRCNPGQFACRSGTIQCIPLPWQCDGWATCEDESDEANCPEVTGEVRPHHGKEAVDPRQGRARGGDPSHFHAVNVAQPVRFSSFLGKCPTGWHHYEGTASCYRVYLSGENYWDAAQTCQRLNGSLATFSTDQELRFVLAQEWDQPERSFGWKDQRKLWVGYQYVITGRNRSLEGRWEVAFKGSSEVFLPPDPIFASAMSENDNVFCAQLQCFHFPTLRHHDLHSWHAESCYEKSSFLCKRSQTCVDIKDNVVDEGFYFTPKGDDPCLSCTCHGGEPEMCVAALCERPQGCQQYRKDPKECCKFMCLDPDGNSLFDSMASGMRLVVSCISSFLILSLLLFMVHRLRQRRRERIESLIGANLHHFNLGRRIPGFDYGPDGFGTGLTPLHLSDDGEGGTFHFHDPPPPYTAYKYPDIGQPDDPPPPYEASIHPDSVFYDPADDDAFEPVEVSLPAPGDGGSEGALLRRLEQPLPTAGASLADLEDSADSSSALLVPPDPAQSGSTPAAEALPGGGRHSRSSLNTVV
UniProt Q9NYP3: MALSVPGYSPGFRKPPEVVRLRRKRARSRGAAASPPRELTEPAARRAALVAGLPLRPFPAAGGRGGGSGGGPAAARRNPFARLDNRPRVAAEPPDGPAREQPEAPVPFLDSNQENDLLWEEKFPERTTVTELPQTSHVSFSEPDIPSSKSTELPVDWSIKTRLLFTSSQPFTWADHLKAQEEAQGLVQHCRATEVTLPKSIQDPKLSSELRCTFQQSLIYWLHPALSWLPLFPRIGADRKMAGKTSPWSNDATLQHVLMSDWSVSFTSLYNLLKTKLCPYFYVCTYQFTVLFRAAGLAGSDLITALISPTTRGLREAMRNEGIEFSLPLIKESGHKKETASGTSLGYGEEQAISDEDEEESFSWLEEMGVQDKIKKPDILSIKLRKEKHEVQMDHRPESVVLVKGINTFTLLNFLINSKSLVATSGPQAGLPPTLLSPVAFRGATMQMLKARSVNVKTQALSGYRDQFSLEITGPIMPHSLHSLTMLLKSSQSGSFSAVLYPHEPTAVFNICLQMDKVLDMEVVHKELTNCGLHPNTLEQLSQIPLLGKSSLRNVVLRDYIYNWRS
UniProt Q6P3W2: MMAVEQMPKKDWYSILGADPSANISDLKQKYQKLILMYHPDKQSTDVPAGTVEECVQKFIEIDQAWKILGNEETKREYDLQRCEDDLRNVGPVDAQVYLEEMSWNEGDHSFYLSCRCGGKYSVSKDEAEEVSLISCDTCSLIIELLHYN
UniProt Q9UBS3: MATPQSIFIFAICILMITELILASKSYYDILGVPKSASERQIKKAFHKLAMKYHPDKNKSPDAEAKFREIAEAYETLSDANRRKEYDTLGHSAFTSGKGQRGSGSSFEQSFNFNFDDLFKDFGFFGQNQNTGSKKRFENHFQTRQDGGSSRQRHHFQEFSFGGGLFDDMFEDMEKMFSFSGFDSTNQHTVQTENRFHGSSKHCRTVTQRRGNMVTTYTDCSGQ

Key:
Assay in all cases: log2 fold change, soluble protein after heating vs DMSO (PISA); higher = thermal stabilisation; K562 lysate, 10 uM; active = over 0.2 and 3.5 SD of the protein, either way, in both replicates (recomputed)
lapatinib = compound: CS(=O)(=O)CCNCc1ccc(-c2ccc3ncnc(Nc4ccc(OCc5cccc(F)c5)c(Cl)c4)c3c2)o1 [lapatinib]
Outline: (§1)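 K562 pellets were dounce-homogenised in PBS pH 7.4 with 1 mM MgCl2, and the crude extract at 1 mg/mL protein was treated with 10 μM compound for 30 min. Aliquots were heated for 3 min across 48°C-58°C, pooled, and brought to 0.5% NP-40 at 4°C; soluble protein was the supernatant after 21,000xg for 90 min. Soluble protein was quantified by TMTpro 16plex LC-MS/MS with channel sums equalised, and reported as log2 fold change in thermal stability against DMSO controls, with values from duplicates.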

pictilisib = compound: CS(=O)(=O)N1CCN(Cc2cc3nc(-c4cccc5[nH]ncc45)nc(N4CCOCC4)c3s2)CC1 [pictilisib]
Outline: as §1

crizotinib = compound: C[C@@H](Oc1cc(-c2cnn(C3CCNCC3)c2)cnc1N)c1c(Cl)ccc(F)c1Cl [crizotinib]
Outline: as §1

[1] = compound: C[C@H](C1=CC=C(C=C1)C(=O)NC2=C3C=CNC3=NC=C2)N
Outline: as §1

duvelisib = compound: C[C@H](Nc1ncnc2nc[nH]c12)c1cc2cccc(Cl)c2c(=O)n1-c1ccccc1 [duvelisib]
Outline: as §1

gandotinib = compound: Cc1cc(Nc2cc(CN3CCOCC3)c3nc(C)c(Cc4ccc(Cl)cc4F)n3n2)n[nH]1 [gandotinib]
Outline: as §1

tozasertib = compound: Cc1cc(Nc2cc(N3CCN(C)CC3)nc(Sc3ccc(NC(=O)C4CC4)cc3)n2)n[nH]1 [tozasertib]
Outline: as §1

doramapimod = compound: Cc1ccc(-n2nc(C(C)(C)C)cc2NC(=O)Nc2ccc(OCCN3CCOCC3)c3ccccc23)cc1 [doramapimod]
Outline: as §1

bafetinib = compound: Cc1ccc(NC(=O)c2ccc(CN3CC[C@H](N(C)C)C3)c(C(F)(F)F)c2)cc1Nc1nccc(-c2cncnc2)n1 [bafetinib]
Outline: as §1

[2] = compound: Cc1cccc(CC(=O)N2CCc3c2ccc(-c2cn(C)c4ncnc(N)c24)c3F)n1
Outline: as §1

nilotinib = compound: Cc1cn(-c2cc(NC(=O)c3ccc(C)c(Nc4nccc(-c5cccnc5)n4)c3)cc(C(F)(F)F)c2)cn1 [nilotinib]
Outline: as §1

[3] = compound: Cc1nc(Nc2n[nH]c3c2CN(C(=O)N[C@H](CN(C)C)c2ccccc2)C3(C)C)c2sccc2n1
Outline: as §1

dasatinib = compound: Cc1nc(Nc2ncc(C(=O)Nc3c(C)cccc3Cl)s2)cc(N2CCN(CCO)CC2)n1 [dasatinib]
Outline: as §1

[4] = compound: Cc1ncc(-c2ccnc(Nc3ccc(S(C)(=O)=O)cc3)n2)n1C(C)C
Outline: as §1

[5] = compound: Cn1cc(-c2ccc3c(c2)CCN3C(=O)Cc2cccc(C(F)(F)F)c2)c2c(N)ncnc21
Outline: as §1

quisinostat = compound: Cn1cc(CNCC2CCN(c3ncc(C(=O)NO)cn3)CC2)c2ccccc21 [quisinostat]
Outline: as §1

tipifarnib = compound: Cn1cncc1[C@@](N)(c1ccc(Cl)cc1)c1ccc2c(c1)c(-c1cccc(Cl)c1)cc(=O)n2C [tipifarnib]
Outline: as §1

[6] = compound: NC(=O)Nc1cc(-c2cccc(F)c2)sc1C(=O)N[C@H]1CCCNC1
Outline: as §1

[7] = compound: NC(=O)c1cnc(N[C@@H]2CCCC[C@@H]2N)nc1Nc1cccc(-n2nccn2)c1
Outline: as §1

[8] = compound: NC1(c2ccc(-c3nc4ccn5c(=O)[nH]nc5c4cc3-c3ccccc3)cc2)CCC1
Outline: as §1

Measured: log2 fold change

DLST (UniProt P36957)
inactive: lapatinib -0.012 | pictilisib 0 | crizotinib 0.007 | [1] -0.019 | duvelisib 0.008 | gandotinib 0.022 | tozasertib 0.04 | doramapimod 0.02 | bafetinib 0.025 | [2] 0.019 | nilotinib 0.015 | [3] 0.021 | dasatinib -0.021 | [4] -0.01 | [5] 0.037 | quisinostat -0.006 | tipifarnib 0.019 | [6] -0.023 | [7] 0.014 | [8] 0.017

DNAJC10 (UniProt Q8IXB1)
inactive: lapatinib -0.009 | pictilisib 0.001 | crizotinib 0.029 | [1] 0.019 | duvelisib 0.016 | gandotinib 0.035 | tozasertib 0.006 | doramapimod -0.025 | bafetinib -0.013 | [2] 0.026 | nilotinib 0.036 | [3] 0.009 | dasatinib 0.021 | [4] 0.005 | [5] -0.007 | quisinostat 0.021 | tipifarnib 0.041 | [6] 0.012 | [7] -0.011 | [8] 0.016

DLGAP5 (UniProt Q15398)
inactive: lapatinib 0.02 | pictilisib 0 | crizotinib -0.016 | [1] -0.029 | duvelisib -0.005 | gandotinib 0.049 | tozasertib -0.014 | doramapimod 0.001 | bafetinib -0.008 | [2] 0.04 | nilotinib -0.013 | [3] 0.029 | dasatinib -0.036 | [4] 0 | [5] 0.001 | quisinostat -0.033 | tipifarnib 0.001 | [6] 0.011 | [7] 0.006 | [8] 0.007

DHX37 (UniProt Q8IY37)
inactive: lapatinib 0.017 | pictilisib 0.098 | crizotinib -0.092 | [1] 0.156 | duvelisib -0.019 | gandotinib -0.146 | tozasertib -0.026 | doramapimod -0.042 | bafetinib 0.056 | [2] -0.084 | nilotinib -0.013 | [3] 0.013 | dasatinib -0.3 | [4] -0.021 | [5] 0.032 | quisinostat 0.104 | tipifarnib -0.005 | [6] 0.038 | [7] -0.061 | [8] 0.155

DLD (UniProt P09622)
inactive: lapatinib -0.003 | pictilisib 0.009 | crizotinib -0.001 | [1] -0.067 | duvelisib -0.012 | gandotinib 0.047 | tozasertib -0.016 | doramapimod -0.001 | bafetinib 0.005 | [2] 0.012 | nilotinib 0.02 | [3] 0.001 | dasatinib 0.003 | [4] 0.011 | [5] -0.022 | quisinostat -0.014 | tipifarnib 0.003 | [6] -0.015 | [7] -0.009 | [8] 0.005

DNM1 (UniProt Q05193)
inactive: lapatinib -0.006 | pictilisib -0.084 | crizotinib 0.122 | [1] -0.124 | duvelisib -0.293 | gandotinib -0.007 | doramapimod -0.01 | bafetinib 0.077 | [2] 0.074 | nilotinib -0.093 | [3] -0.072 | dasatinib -0.089 | [4] 0.015 | [5] 0.137 | quisinostat -0.148 | tipifarnib -0.045 | [6] -0.045 | [7] -0.018 | [8] -0.069

DGCR2 (UniProt P98153)
inactive: lapatinib 0.154 | [1] -0.138 | duvelisib 0.007 | gandotinib 0.005 | tozasertib -0.201 | [2] 0.109 | nilotinib 0.022 | [3] -0.082 | dasatinib 0.075 | [4] -0.009 | [5] 0 | tipifarnib -0.24 | [7] -0.061 | [8] -0.094

DONSON (UniProt Q9NYP3)
inactive: lapatinib -0.012 | pictilisib -0.019 | crizotinib -0.012 | [1] -0.32 | duvelisib 0.007 | gandotinib 0.196 | doramapimod 0.07 | bafetinib -0.033 | [2] -0.157 | nilotinib 0.035 | [3] 0.004 | dasatinib -0.031 | [4] 0.066 | [5] -0.035 | quisinostat -0.051 | tipifarnib -0.024 | [6] -0.003 | [7] -0.022 | [8] 0.082

DNAJC24 (UniProt Q6P3W2)
inactive: lapatinib 0.006 | crizotinib 0.074 | [1] 0.152 | duvelisib -0.025 | gandotinib -0.162 | tozasertib 0.073 | doramapimod 0.042 | [2] -0.134 | nilotinib 0 | [3] -0.093 | dasatinib 0.062 | [4] 0.02 | [5] -0.039 | quisinostat -0.042 | tipifarnib 0.063 | [6] 0.054 | [7] -0.041 | [8] -0.015

DNAJB9 (UniProt Q9UBS3)
inactive: lapatinib 0.013 | crizotinib -0.032 | duvelisib -0.018 | doramapimod 0.121 | dasatinib -0.173 | [5] 0.097 | quisinostat 0.04 | [6] 0.009 | [7] -0.093 | [8] -0.007
